{
  "sequences": {"note": "Sequences of proteins named here, by UniProt entry; tags and fusion partners are left off.", "UniProt P42227": "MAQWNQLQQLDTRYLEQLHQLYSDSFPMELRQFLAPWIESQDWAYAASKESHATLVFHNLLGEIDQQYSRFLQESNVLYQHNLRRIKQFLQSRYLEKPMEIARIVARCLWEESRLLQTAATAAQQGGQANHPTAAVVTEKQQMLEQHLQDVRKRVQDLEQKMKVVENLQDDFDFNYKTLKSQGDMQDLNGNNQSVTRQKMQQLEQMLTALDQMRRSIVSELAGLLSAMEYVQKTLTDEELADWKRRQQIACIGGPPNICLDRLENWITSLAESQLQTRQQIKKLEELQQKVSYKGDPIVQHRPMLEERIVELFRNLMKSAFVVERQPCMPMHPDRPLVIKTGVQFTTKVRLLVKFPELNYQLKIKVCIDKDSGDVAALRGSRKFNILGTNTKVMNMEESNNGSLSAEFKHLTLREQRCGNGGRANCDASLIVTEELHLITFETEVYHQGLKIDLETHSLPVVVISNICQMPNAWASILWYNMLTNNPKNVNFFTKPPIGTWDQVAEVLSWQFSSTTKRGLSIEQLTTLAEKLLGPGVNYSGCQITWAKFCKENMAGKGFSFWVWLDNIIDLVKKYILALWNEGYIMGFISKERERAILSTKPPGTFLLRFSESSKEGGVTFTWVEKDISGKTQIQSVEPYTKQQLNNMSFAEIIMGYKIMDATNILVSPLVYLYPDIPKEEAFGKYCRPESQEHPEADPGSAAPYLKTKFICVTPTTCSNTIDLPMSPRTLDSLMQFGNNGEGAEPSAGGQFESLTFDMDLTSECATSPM", "UniProt Q08775": "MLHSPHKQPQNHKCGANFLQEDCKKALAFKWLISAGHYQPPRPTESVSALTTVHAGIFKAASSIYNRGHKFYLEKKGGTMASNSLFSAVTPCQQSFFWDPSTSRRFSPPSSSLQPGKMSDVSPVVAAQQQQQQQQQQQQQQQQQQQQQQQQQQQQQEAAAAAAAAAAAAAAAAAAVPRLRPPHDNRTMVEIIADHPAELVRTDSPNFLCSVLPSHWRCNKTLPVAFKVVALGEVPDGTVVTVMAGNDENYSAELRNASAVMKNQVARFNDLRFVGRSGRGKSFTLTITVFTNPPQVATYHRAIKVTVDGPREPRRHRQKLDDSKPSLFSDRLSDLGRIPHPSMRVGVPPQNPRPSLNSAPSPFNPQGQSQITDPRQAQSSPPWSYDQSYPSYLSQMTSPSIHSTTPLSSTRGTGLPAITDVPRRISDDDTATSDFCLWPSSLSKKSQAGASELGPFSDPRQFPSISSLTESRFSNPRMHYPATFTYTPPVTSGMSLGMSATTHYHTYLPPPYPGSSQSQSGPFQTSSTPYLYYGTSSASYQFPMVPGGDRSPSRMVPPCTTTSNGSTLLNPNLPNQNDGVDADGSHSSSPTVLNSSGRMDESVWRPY"},
  "source": "paper PMC7048209",
  "molecular_target": "Flag-STAT3 (UniProt P42227)",
  "experiment": "co-IP; Flag-STAT3 and HA-Runx2 plasmids co-transfected into 293T cells; after 48 hours whole cell lysates immunoprecipitated by Flag antibody at 4°C overnight; Western blotting with anti-HA and anti-Flag",
  "note": "These are yes or no findings as the source states them, for the method shown. Binding seen in cells or lysates may run through a third protein. Some results given as binding are weak or reduced against the parent protein; the word gives no strength.",
  "data": [
    {"substance": "HA-Runx2 (from UniProt Q08775 1-607)", "values": [
      {"measurement": "binding", "result": "binds"}
    ]}
  ]
}
